# The list shows a part of the results. Shown are side measurements of this screen, not its main read-out; they come without a call. Most of these compounds were active or inconclusive in the main read-out, so they are no random draw. Words in brackets tell the shape of the fitted curve; partial curves, single points and poor fits give uncertain potencies.
# Experiment: IkB Signaling
# Details: ABC-DLBCL IkBa-CBG/CBR dual luciferase ratio (green luciferase fused to IkBa over red control in OCI-Ly3 lymphoma cells), 4 h
# In short: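 Luminescence ratio of IκBα-fused green versus native red beetle luciferase in OCI-Ly3 cells, 4 h post-doxycycline with compound; red signal alone, scaled from basal (0%) to zero light (-100%), flagged nonspecific or cytotoxic effects.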
# [1] = measured here: control luc red channel unless noted
smiles,measurement,setting,value
CN1C(=O)C2(SCC(=O)N2c2ccc(Cl)cc2)c2ccccc21 (centres undefined),AC50,[1],"0.0316 µM [falling, full curve]"
CC(=O)N1CCCc2cc(S(=O)(=O)N3CCCC(C(=O)NCc4ccc(C)cc4)C3)ccc21 (centres undefined),AC50,[1],"15.8 µM [falling, partial curve]"
CCCOc1ccc(-c2cc(C(F)(F)F)c(C#N)c(SCCC(=O)O)n2)cc1,AC50,[1],"15.8 µM [falling, partial curve]"
CCCN(CCC)C(=O)Cn1c(=O)n(CCCCCC(=O)NCc2ccccc2Cl)c(=O)c2sccc21,AC50,[1],"0.0316 µM [falling, full curve, poor fit]"
COc1ccc(C2CC3(CC(C)(C)NC(=O)N3)Oc3cc(O)ccc32)cc1 (centres undefined),AC50,[1],"15.8 µM [falling, partial curve]"
CS(=O)(=O)N1CCc2cc(C(=O)Nc3ccc(C(F)(F)F)cc3)ccc21,AC50,[1],"20 µM [falling, partial curve]"
CC(=O)c1ccc(NC(=O)N2CCN(c3cccc(Cl)c3)CC2)cc1,AC50,[1],"12.6 µM [falling, partial curve]"
CN(C)c1ccc(CNC(=O)C2CCN(Cc3cc4ccccc4n3Cc3ccccc3)CC2)cc1,AC50,[1],"1.26 µM [rising, single point]"
O=C1C(=O)N(Cc2ccc(Cl)c(Cl)c2)c2ccccc21,AC50,[1],"39.8 µM [falling, single point]"
CCOC(=O)c1ccc(NCc2nc3ccccc3[nH]2)cc1,AC50,[1],"25.1 µM [falling, partial curve]"
Cc1ccc(-c2noc(CSc3nnc(C)n3-c3ccc(C)c(C)c3)n2)cc1,AC50,[1],"25.1 µM [falling, partial curve]"
Cc1cc(NC(=O)c2ccccc2)sc1C,AC50,[1],"15.8 µM [falling, partial curve]"
CCOc1ccc(NC(=O)c2cc(S(=O)(=O)N3CCN(c4ccccc4F)CC3)ccc2F)cc1,AC50,[1],"6.31 µM [falling, full curve]"
COc1ccc(OCC(=O)Nc2cccc(OC)c2)cc1,AC50,[1],"20 µM [falling, single point]"
CCCCN(C)C(=O)CSc1nc2ccccc2nc1Cc1ccc(C)cc1,AC50,[1],"31.6 µM [falling, partial curve]"
Cc1ccc2oc(C(=O)N(Cc3sccc3C)C3CCS(=O)(=O)C3)c(C)c2c1 (centres undefined),AC50,[1],"31.6 µM [falling, single point]"
CCOc1ccc(Nc2c(S(=O)(=O)c3ccc(C)cc3)cnc3ccc(F)cc23)cc1,AC50,[1],"12.6 µM [falling, single point]"
COc1ccccc1CNC(=O)C(=O)NCC(c1cccs1)S(=O)(=O)c1cccs1 (centres undefined),AC50,[1],"15.8 µM [rising, single point]"
COc1ccccc1C(=O)Nc1nnc2n1CCS2,AC50,[1],"1 µM [rising, full curve, poor fit]"
COc1cccc2c1cc1c(=O)n(CC(=O)NCc3ccco3)nc(C)n12,AC50,[1],"10 µM [rising, partial curve, poor fit]"
Cc1c(Cl)cccc1NC(=O)CSc1nc(=O)n(Cc2ccco2)c2c1CCC2,AC50,[1],"39.8 µM [falling, single point]"
Cc1ccc(CCNC(=O)CN(c2ccc(C)cc2)S(=O)(=O)N(C)C)cc1,AC50,[1],"39.8 µM [falling, single point]"
CC1CCN(S(=O)(=O)c2ccc3c(c2)N(CC(=O)NCC(C)c2ccccc2)C(=O)CO3)CC1 (centres undefined),AC50,[1],"20 µM [falling, partial curve]"
CCN1CCN(c2ncnc3c2cnn3-c2cccc(C)c2)CC1,AC50,[1],"31.6 µM [falling, single point]"
O=S1(=O)c2cccc3cccc(c23)N1Cc1nnc(-c2ccccc2Br)o1,AC50,[1],"12.6 µM [falling, partial curve]"
O=C(NC1CCCCC1)c1ccc2c(c1)N(Cc1ccccc1Cl)C(=O)c1ccccc1S2,AC50,[1],"1 µM [rising, full curve]"
CCOc1ccccc1NC(=O)C1CCCN1S(=O)(=O)c1ccc2nc(-c3ccccc3)[nH]c2c1 (centres undefined),AC50,[1],"5.01 µM [falling, partial curve]"
CCOc1ccc(S(=O)(=O)Nc2ccc3oc4c(c3c2)CC(C)CC4)cc1 (centres undefined),AC50,[1],"31.6 µM [falling, partial curve]"
O=C(Nc1ccc2c(c1)OCO2)c1ccc(Br)c(S(=O)(=O)N2CCCC2)c1,AC50,measured here: IkB-luc green channel,"15.8 µM [falling, partial curve]"
same,AC50,measured here: control luc red channel,"10 µM [falling, partial curve]"
Cc1nnc(SCc2nc3ccccc3s2)n1-c1ccccc1,AC50,[1],"1.58 µM [falling, full curve, poor fit]"
CC(C)CN(CC(C)C)CC(O)Cn1cc(/C=C/C(=O)c2ccccc2)c2ccccc21 (centres undefined),AC50,[1],"6.31 µM [falling, partial curve]"
COc1ccc(C)c2sc(NC(=O)c3ccc(S(=O)(=O)N4CCCC4)cc3)nc12,AC50,[1],"0.398 µM [falling, full curve, poor fit]"
COc1ccc(C(=O)NCc2ccc3c(c2)CCN3C(=O)c2ccc(F)cc2)cc1,AC50,[1],"12.6 µM [falling, partial curve]"
COc1ccc(Nc2ncnc3c2cnn3Cc2ccccc2)cc1,AC50,[1],"39.8 µM [falling, single point]"
CC1=C(C(=O)OCc2ccc(C)cc2)C(c2ccccc2C(F)(F)F)CC(=O)N1 (centres undefined),AC50,[1],"15.8 µM [falling, partial curve]"
O=C(c1cccc(COCC(F)(F)C(F)F)c1)N1CCN(c2ccccc2)CC1,AC50,[1],"15.8 µM [falling, partial curve]"
Cc1ccc(OCCSc2nc3ccccc3n2CC(=O)N2CCOCC2)cc1,AC50,[1],"7.94 µM [falling, partial curve]"
COC(=O)c1c(NC(=O)c2ccc(Cl)c(Cl)c2)sc2c1CCCC2,AC50,[1],"0.501 µM [falling, full curve]"
CCOc1ccc(NC(=O)CSc2nnc3scc(-c4ccccc4)n23)cc1,AC50,[1],"39.8 µM [falling, single point]"
Nc1[nH]nc2nc3ccccc3nc12,AC50,[1],"20 µM [falling, partial curve, poor fit]"
Cc1ccc(-n2ncc(C(=O)Nc3ccc4c(c3)OCCO4)c2C2CCN(C(=O)OC(C)(C)C)CC2)cc1C,AC50,[1],"15.8 µM [falling, partial curve]"
Fc1ccccc1OCCSc1nnnn1-c1ccccc1,AC50,[1],"15.8 µM [falling, partial curve]"
COc1ccccc1N1CCN(C(=O)Cn2ncc3c2-c2cc(C)ccc2OC3)CC1,AC50,[1],"31.6 µM [falling, single point]"
COC(=O)c1cc(NC(=O)Cc2coc3cc(OC)ccc23)cc(C(=O)OC)c1,AC50,[1],"10 µM [falling, partial curve]"
COc1cccc(-c2nc(CS(=O)(=O)CC(=O)Nc3cccc(C(C)=O)c3)c(C)o2)c1,AC50,[1],"10 µM [falling, partial curve]"
COc1cc(CN(C(=O)c2ccc(OC(C)C)cc2)c2ccccn2)cc(OC)c1OC,AC50,[1],"25.1 µM [falling, single point]"
Cc1cc(Nc2nc3ccccc3c3nnc(C)n23)ccc1Br,AC50,[1],"0.00501 µM [rising, full curve, poor fit]"
Cc1[nH]nc(-c2ccc(O)cc2O)c1-c1ccc(Cl)cc1,AC50,[1],"12.6 µM [falling, partial curve]"
Cc1cc(C)cc(NC(=O)CSc2c(C(C)C)cnc3c2c(=O)n(C)c(=O)n3C)c1,AC50,[1],"31.6 µM [falling, single point]"
Cc1cc(C)cc(Nc2cc(C(=O)NC3CCCCC3)c3ccccc3n2)c1,AC50,[1],"7.94 µM [rising, partial curve]"
CCOC(=O)c1ccccc1NC(=O)CSc1nnc(CC)n2c1cc1occc12,AC50,[1],"20 µM [falling, single point]"
COc1ccc(C)cc1NC(=O)c1cc(S(=O)(=O)N2CCC(C)CC2)ccc1F,AC50,[1],"15.8 µM [falling, partial curve, poor fit]"
CCCCc1ccc(C(=O)Nc2ccc3nc(N4CCN(CC)CC4)cc(C)c3c2)cc1,AC50,[1],"15.8 µM [falling, partial curve]"
O=C(CSc1nnc2ccccn12)c1ccccc1,AC50,[1],"3.16 µM [falling, full curve]"
CCOC(=O)c1cc(C)n(CC2CCC(C(=O)Nc3ccc(OC)cc3)CC2)c1C (centres undefined),AC50,[1],"10 µM [falling, partial curve]"
CCc1ccccc1NC(=O)c1cc(-c2ccc(Cl)s2)nc2ccccc12,AC50,[1],"5.01 µM [falling, full curve, poor fit]"
Cc1oc(-c2ccccc2F)nc1Cn1c(SCc2cccc(C(F)(F)F)c2)nc2ccncc21,AC50,[1],"3.16 µM [falling, full curve, poor fit]"
O=C(Nc1ccccc1F)c1cnc(N2CCCCC2)c2ccccc12,AC50,[1],"1 µM [rising, full curve, poor fit]"
COc1ccccc1-c1nnc(C2CCN(C(=O)c3ccccc3C)CC2)o1,AC50,[1],"0.2 µM [falling, partial curve, poor fit]"
COc1ccc(N(CC(=O)Nc2cc(OC)cc(OC)c2)S(=O)(=O)c2c(C)noc2C)cc1,AC50,[1],"10 µM [falling, partial curve]"
Cc1cccc(-n2c(C)cc(C(=O)C(=O)Nc3nncs3)c2C)c1,AC50,[1],"10 µM [falling, partial curve]"
Cc1ccc(O)c(NC(=O)CCS(=O)(=O)c2nc(-c3cccs3)cc(C(F)(F)F)n2)c1,AC50,[1],"3.16 µM [falling, full curve]"
Cc1ccc(C(C)C)c(OCC(=O)Nc2cc(-c3nc4ccccc4[nH]3)ccc2C)c1,AC50,[1],"10 µM [falling, full curve]"

# 4 records picked at random from those above, as already listed:
smiles,measurement,setting,value
Cc1cc(C)cc(NC(=O)CSc2c(C(C)C)cnc3c2c(=O)n(C)c(=O)n3C)c1,AC50,[1],"31.6 µM [falling, single point]"
O=C(Nc1ccccc1F)c1cnc(N2CCCCC2)c2ccccc12,AC50,[1],"1 µM [rising, full curve, poor fit]"
CS(=O)(=O)N1CCc2cc(C(=O)Nc3ccc(C(F)(F)F)cc3)ccc21,AC50,[1],"20 µM [falling, partial curve]"
CCOc1ccc(NC(=O)CSc2nnc3scc(-c4ccccc4)n23)cc1,AC50,[1],"39.8 µM [falling, single point]"

# From PubChem BioAssay AID445 (National Center for Advancing Translational Sciences (NCATS), 2006)
